Literature values in publication PMC8473701.

Assay: not told

## CC(C)CC(=O)O
  log partition chloroform / water: 0.19 log10
  log partition hexadecane / water: -1.33 log10
  log partition octanol / water: 1.16 log10
